For data set [1], the target named is AskA (Myxococcus xanthus DK1622) (UniProt Q1DEE3). The data set can be described thus: pull-down. The settings on record: 10 uM ATP; Pull-down (purified): 25 mM HEPES pH 7.4, 60 mM KCl, 65 mM NaCl, 8 mM MgCl2, 10 uM ATP, 25 ug/ml poly-dIdC, 10% glycerol, 0.1% Triton X100, 4 C; recombinant protein; residues 1-1967; label: 5'-biotin (both primers); probe letters rebuilt from the primers and the genome.

The test system of data set [2] is AskA + AskB + AskC + MrpC. Description: pull-down. The following applies: 10 uM ATP, MrpC and kinase binding not mutually exclusive, single complex not proven; Pull-down (purified): 25 mM HEPES pH 7.4, 60 mM KCl, 65 mM NaCl, 8 mM MgCl2, 10 uM ATP, 25 ug/ml poly-dIdC, 10% glycerol, 0.1% Triton X100, 4 C; recombinant protein; label: 5'-biotin (both primers); probe letters rebuilt from the primers and the genome.

A further data set relates to AskA + AskB + AskC. The data set can be described thus: pull-down. The following applies: 10 uM ATP, independent of MrpC and ambruticin VS-3, at least a two-membered kinase complex; Pull-down (purified): 25 mM HEPES pH 7.4, 60 mM KCl, 65 mM NaCl, 8 mM MgCl2, 10 uM ATP, 25 ug/ml poly-dIdC, 10% glycerol, 0.1% Triton X100, 4 C; recombinant protein; label: 5'-biotin (both primers); probe letters rebuilt from the primers and the genome.

Data set [3] concerns the target AskB (Myxococcus xanthus DK1622) (UniProt Q1CXM1). The data set can be described thus: pull-down. The settings on record: 10 uM ATP; Pull-down (purified): 25 mM HEPES pH 7.4, 60 mM KCl, 65 mM NaCl, 8 mM MgCl2, 10 uM ATP, 25 ug/ml poly-dIdC, 10% glycerol, 0.1% Triton X100, 4 C; recombinant protein; label: 5'-biotin (both primers); probe letters rebuilt from the primers and the genome.

Data set [4] has the same target. Description: EMSA. The settings on record: shift to the well, with Cy5-P0552 present, abolished by excess unlabeled PmrpC; EMSA: 25 mM K-acetate, 8 mM MgSO4, 0.1 mM DTT, 15 mM Tris-HCl pH 7.3, 8% glycerol, 250 ng poly-dIdC, 200 fmol DNA, 15 ul, 30 C 30 min; recombinant protein; label: 5'-HEX (both primers); probe letters rebuilt from the primers and the genome. (In general: Mobility shift assays separate free from complexed probe on a gel.)

Data set [5] deals with T1, AskC (Myxococcus xanthus DK1622) (UniProt Q1CXM2).
T1 sequence (looked up, limits assumed): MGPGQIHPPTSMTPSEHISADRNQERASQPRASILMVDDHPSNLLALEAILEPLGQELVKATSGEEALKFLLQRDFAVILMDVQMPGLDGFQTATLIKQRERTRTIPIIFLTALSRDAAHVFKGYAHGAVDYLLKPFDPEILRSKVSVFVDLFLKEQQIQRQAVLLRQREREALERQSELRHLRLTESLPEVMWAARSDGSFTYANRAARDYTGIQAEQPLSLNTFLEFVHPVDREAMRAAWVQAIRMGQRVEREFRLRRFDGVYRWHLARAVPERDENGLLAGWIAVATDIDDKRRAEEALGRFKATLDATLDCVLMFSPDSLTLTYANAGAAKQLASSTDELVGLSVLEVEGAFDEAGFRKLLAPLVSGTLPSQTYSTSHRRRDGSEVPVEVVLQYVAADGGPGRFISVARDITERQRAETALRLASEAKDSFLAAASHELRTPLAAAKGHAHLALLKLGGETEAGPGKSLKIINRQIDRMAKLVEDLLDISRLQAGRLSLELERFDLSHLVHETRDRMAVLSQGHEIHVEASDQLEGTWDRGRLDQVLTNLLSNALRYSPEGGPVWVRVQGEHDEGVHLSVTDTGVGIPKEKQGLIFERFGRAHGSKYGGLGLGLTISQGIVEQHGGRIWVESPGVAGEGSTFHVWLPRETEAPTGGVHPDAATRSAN
The data set can be described thus: EMSA. The settings on record: with Cy5-P0552 present; EMSA: 25 mM K-acetate, 8 mM MgSO4, 0.1 mM DTT, 15 mM Tris-HCl pH 7.3, 8% glycerol, 250 ng poly-dIdC, 200 fmol DNA, 15 ul, 30 C 30 min; recombinant protein; protein details: C-terminal His6; label: 5'-HEX (both primers); probe letters rebuilt from the primers and the genome.

The target in data set [6] is T2, MrpC (Myxococcus xanthus DK1622) (UniProt Q1D244).
T2 sequence (looked up): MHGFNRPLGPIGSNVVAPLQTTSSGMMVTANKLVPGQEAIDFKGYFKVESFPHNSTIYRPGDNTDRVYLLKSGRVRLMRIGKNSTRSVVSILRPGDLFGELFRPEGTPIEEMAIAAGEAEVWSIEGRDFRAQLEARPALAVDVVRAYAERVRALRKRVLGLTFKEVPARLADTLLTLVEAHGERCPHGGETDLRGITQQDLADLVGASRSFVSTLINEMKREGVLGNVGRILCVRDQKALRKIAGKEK
The data set can be described thus: EMSA. The settings on record: no ambruticin VS-3, four shifted bands, shift quantitative; EMSA: 25 mM K-acetate, 8 mM MgSO4, 0.1 mM DTT, 15 mM Tris-HCl pH 7.3, 8% glycerol, 250 ng poly-dIdC, 200 fmol DNA, 15 ul, 30 C 30 min; recombinant protein; residues 1-248; label: 5'-HEX (both primers); probe letters rebuilt from the primers and the genome.

For some of these results: Protein sequences can lack the tags named with them. For some of these results: Construct, isoform or probe ends are uncertain for at least one entry. For some of these results: A negative result means that nothing was seen under these conditions. For some of these results: At least one verdict was read from the data and is not stated in words by the source.

For “TGGCATAACTCCTGGGAAGGAAGCGTAGGGAAGCCGGGCCGTCTGCTTCAGCGGCGAACGGGACTTTCCTTCTCCAAGGTTCGTGCCAGCGGGAATTGAAATGCCGCCGGGACAACACCTCCTGAAATGCCGGGTACTTAGCGCTACAGGCCCGCACCAGAGCCCGTTCTGTGTCCAAAACCTGAAACAGAACGTTCAAACAGTCTGATCAATTTGAACGAAACGTTCAAACCGGGGGCATGAGTGTCGGAGCAGCGACACTGTCCAAGAGTGCTCACAACGCATCCTTCACAGGGAAGGTGTGCACTTGAGGGCTCTGGCTCTGTGCAAGACCGTACTTCTGGAGCTTGCGCTCCAGGGTGGGGCGGCTGATTCCAAGGATC (double strand) [BTN-PmrpC]”, the binding result (in data set [1]; in data set [2]; in the data set on AskA + AskB + AskC; in data set [3]) was “binds” in each case.

Turning to “TGGCATAACTCCTGGGAAGGAAGCGTAGGGAAGCCGGGCCGTCTGCTTCAGCGGCGAACGGGACTTTCCTTCTCCAAGGTTCGTGCCAGCGGGAATTGAAATGCCGCCGGGACAACACCTCCTGAAATGCCGGGTACTTAGCGCTACAGGCCCGCACCAGAGCCCGTTCTGTGTCCAAAACCTGAAACAGAACGTTCAAACAGTCTGATCAATTTGAACGAAACGTTCAAACCGGGGGCATGAGTGTCGGAGCAGCGACACTGTCCAAGAGTGCTCACAACGCATCCTTCACAGGGAAGGTGTGCACTTGAGGGCTCTGGCTCTGTGCAAGACCGTACTTCTGGAGCTTGCGCTCCAGGGTGGGGCGGCTGATTCCAAGGATC (double strand) [HEX-PmrpC]”, the binding result in data set [4] is on record as “binds”; in data set [5], “no binding”; in data set [6], “binds”.

Values taken from publication PMC7643160, “An ambruticin-sensing complex modulates Myxococcus xanthus development and mediates myxobacterial interspecies communication” (Nature Communications, 2020).
